Source: the supplement of paper PMC7661543
The effect of the compound repeats well; differences between the knockouts mostly do not.

Tested on: BT-20
Assay: relative cell number vs DMSO control (72 h) (% of DMSO); higher = less growth inhibition (more cells)
Experimental: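 QMAP-Seq: a pool of 5 breast cancer cell lines (ZR-75-1, SKBR3, HCC-38, MDA-MB-231, BT-20), each carrying 12 doxycycline-inducible Cas9 sgRNA perturbations (11 knockouts plus non-targeting sgNT), was treated with compounds for 72 h at four 10-fold doses (10 nM-10 uM or 1 nM-1 uM range). Barcodes were amplified and sequenced, and cell number was interpolated from 293T spike-in standard curves. The result is expressed as % of the median of DMSO wells. Two biological replicates.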

c1ccc2c(Oc3nc(Nc4ccc(N5CCOCC5)cc4)c4ncn(C5CCCCC5)c4n3)cccc2c1 [Purmorphamine]
Conditions	relative cell number
sgRNA knockout: sgATF3, 10 nM	100
sgRNA knockout: sgATF3, 100 nM	107
sgRNA knockout: sgATF3, 1000 nM	89.1
sgRNA knockout: sgATF3, 10000 nM	78.2
sgRNA knockout: sgATF4, 10 nM	102
sgRNA knockout: sgATF4, 100 nM	101
sgRNA knockout: sgATF4, 1000 nM	102
sgRNA knockout: sgATF4, 10000 nM	83.3
sgRNA knockout: sgATF6, 10 nM	115
sgRNA knockout: sgATF6, 100 nM	88.8
sgRNA knockout: sgATF6, 1000 nM	99.2
sgRNA knockout: sgATF6, 10000 nM	97.9
sgRNA knockout: sgATG7, 10 nM	89.5
sgRNA knockout: sgATG7, 100 nM	97.5
sgRNA knockout: sgATG7, 1000 nM	90.7
sgRNA knockout: sgATG7, 10000 nM	83.6
sgRNA knockout: sgERN1, 10 nM	91.1
sgRNA knockout: sgERN1, 100 nM	96.4
sgRNA knockout: sgERN1, 1000 nM	107
sgRNA knockout: sgERN1, 10000 nM	77.4
sgRNA knockout: sgHSF1, 10 nM	85.6
sgRNA knockout: sgHSF1, 100 nM	87.1
sgRNA knockout: sgHSF1, 1000 nM	90.7
sgRNA knockout: sgHSF1, 10000 nM	80.4
sgRNA knockout: sgHSF2, 10 nM	96.3
sgRNA knockout: sgHSF2, 100 nM	89.2
sgRNA knockout: sgHSF2, 1000 nM	84.1
sgRNA knockout: sgHSF2, 10000 nM	72
sgRNA knockout: sgKEAP1, 10 nM	98.7
sgRNA knockout: sgKEAP1, 100 nM	80.6
sgRNA knockout: sgKEAP1, 1000 nM	90.9
sgRNA knockout: sgKEAP1, 10000 nM	75.3
sgRNA knockout: sgNFE2L2, 10 nM	107
sgRNA knockout: sgNFE2L2, 100 nM	91.2
sgRNA knockout: sgNFE2L2, 1000 nM	115
sgRNA knockout: sgNFE2L2, 10000 nM	80.3
sgRNA knockout: sgSLC35F2, 10 nM	116
sgRNA knockout: sgSLC35F2, 100 nM	105
sgRNA knockout: sgSLC35F2, 1000 nM	94.1
sgRNA knockout: sgSLC35F2, 10000 nM	77.81
sgRNA knockout: sgXBP1, 10 nM	98.1
sgRNA knockout: sgXBP1, 100 nM	107
sgRNA knockout: sgXBP1, 1000 nM	81.4
sgRNA knockout: sgXBP1, 10000 nM	76.5

CC(C)(C)c1ccc(S(=O)(=O)NCc2ccc(C(=O)Nc3cccnc3)cc2)cc1 [STF31]
Conditions	relative cell number
sgRNA knockout: sgATF3, 10 nM	102
sgRNA knockout: sgATF3, 100 nM	101
sgRNA knockout: sgATF3, 1000 nM	96.3
sgRNA knockout: sgATF3, 10000 nM	68.2
sgRNA knockout: sgATF4, 10 nM	101
sgRNA knockout: sgATF4, 100 nM	93.6
sgRNA knockout: sgATF4, 1000 nM	93.3
sgRNA knockout: sgATF4, 10000 nM	81.6
sgRNA knockout: sgATF6, 10 nM	109.8
sgRNA knockout: sgATF6, 100 nM	93.4
sgRNA knockout: sgATF6, 1000 nM	98.8
sgRNA knockout: sgATF6, 10000 nM	83.5
sgRNA knockout: sgATG7, 10 nM	109
sgRNA knockout: sgATG7, 100 nM	94.5
sgRNA knockout: sgATG7, 1000 nM	109
sgRNA knockout: sgATG7, 10000 nM	80.2
sgRNA knockout: sgERN1, 10 nM	90.6
sgRNA knockout: sgERN1, 100 nM	89.6
sgRNA knockout: sgERN1, 1000 nM	105
sgRNA knockout: sgERN1, 10000 nM	78.4
sgRNA knockout: sgHSF1, 10 nM	96.9
sgRNA knockout: sgHSF1, 100 nM	83.8
sgRNA knockout: sgHSF1, 1000 nM	97.5
sgRNA knockout: sgHSF1, 10000 nM	84
sgRNA knockout: sgHSF2, 10 nM	81.8
sgRNA knockout: sgHSF2, 100 nM	88.1
sgRNA knockout: sgHSF2, 1000 nM	104
sgRNA knockout: sgHSF2, 10000 nM	78.3
sgRNA knockout: sgKEAP1, 10 nM	98
sgRNA knockout: sgKEAP1, 100 nM	88.1
sgRNA knockout: sgKEAP1, 1000 nM	89.6
sgRNA knockout: sgKEAP1, 10000 nM	84.4
sgRNA knockout: sgNFE2L2, 10 nM	84.2
sgRNA knockout: sgNFE2L2, 100 nM	99.5
sgRNA knockout: sgNFE2L2, 1000 nM	95.3
sgRNA knockout: sgNFE2L2, 10000 nM	91.4
sgRNA knockout: sgSLC35F2, 10 nM	110
sgRNA knockout: sgSLC35F2, 100 nM	92.3
sgRNA knockout: sgSLC35F2, 1000 nM	108
sgRNA knockout: sgSLC35F2, 10000 nM	73.5
sgRNA knockout: sgXBP1, 10 nM	91.2
sgRNA knockout: sgXBP1, 100 nM	83.7
sgRNA knockout: sgXBP1, 1000 nM	102
sgRNA knockout: sgXBP1, 10000 nM	74.5

CN1CCN(CCOc2cc(OC3CCOCC3)c3c(Nc4c(Cl)ccc5c4OCO5)ncnc3c2)CC1 [Saracatinib]
Conditions	relative cell number
sgRNA knockout: sgATF3, 10 nM	76.8
sgRNA knockout: sgATF3, 100 nM	89.6
sgRNA knockout: sgATF3, 1000 nM	86.4
sgRNA knockout: sgATF3, 10000 nM	64.3
sgRNA knockout: sgATF4, 10 nM	92.36
sgRNA knockout: sgATF4, 100 nM	94.4
sgRNA knockout: sgATF4, 1000 nM	84.6
sgRNA knockout: sgATF4, 10000 nM	59.9
sgRNA knockout: sgATF6, 10 nM	95.4
sgRNA knockout: sgATF6, 100 nM	83.5
sgRNA knockout: sgATF6, 1000 nM	79
sgRNA knockout: sgATF6, 10000 nM	56
sgRNA knockout: sgATG7, 10 nM	86.1
sgRNA knockout: sgATG7, 100 nM	86
sgRNA knockout: sgATG7, 1000 nM	89.5
sgRNA knockout: sgATG7, 10000 nM	63.7
sgRNA knockout: sgERN1, 10 nM	81.9
sgRNA knockout: sgERN1, 100 nM	91.4
sgRNA knockout: sgERN1, 1000 nM	87.5
sgRNA knockout: sgERN1, 10000 nM	68.1
sgRNA knockout: sgHSF1, 10 nM	91.5
sgRNA knockout: sgHSF1, 100 nM	84.5
sgRNA knockout: sgHSF1, 1000 nM	83
sgRNA knockout: sgHSF1, 10000 nM	57.9
sgRNA knockout: sgHSF2, 10 nM	89
sgRNA knockout: sgHSF2, 100 nM	87.4
sgRNA knockout: sgHSF2, 1000 nM	82.7
sgRNA knockout: sgHSF2, 10000 nM	66.8
sgRNA knockout: sgKEAP1, 10 nM	80
sgRNA knockout: sgKEAP1, 100 nM	92.8
sgRNA knockout: sgKEAP1, 1000 nM	83.6
sgRNA knockout: sgKEAP1, 10000 nM	72.6
sgRNA knockout: sgNFE2L2, 10 nM	80.8
sgRNA knockout: sgNFE2L2, 100 nM	99.7
sgRNA knockout: sgNFE2L2, 1000 nM	80.7
sgRNA knockout: sgNFE2L2, 10000 nM	53.2
sgRNA knockout: sgSLC35F2, 10 nM	101
sgRNA knockout: sgSLC35F2, 100 nM	94.7
sgRNA knockout: sgSLC35F2, 1000 nM	96
sgRNA knockout: sgSLC35F2, 10000 nM	72.8
sgRNA knockout: sgXBP1, 10 nM	83.8
sgRNA knockout: sgXBP1, 100 nM	104
sgRNA knockout: sgXBP1, 1000 nM	81.6
sgRNA knockout: sgXBP1, 10000 nM	53
